# Measured values from article PMC11591149.
# Test system: GST-TsMafK (Tridacna squamosa)
# Experiment: EMSA
# Settings: homodimer, one or two dimers per probe; Molecular Probes fluorescence-based EMSA kit (Invitrogen), manufacturer's instructions; pH and temperature not stated; recombinant protein; protein details: N-terminal GST (pGEX-4T-1)
sequence,measurement,value
TTAGATATTGTGATACAGCAGACTTGCGATTAGATATTGTGATACAGCAGACTTGCGA (double strand) [TsARE probe (TsATPGD promoter core element)],binding result,binds

# The exact form of at least one protein or probe is not confirmed.
